From paper PMC7360973
These are yes or no findings as the source states them, for the method shown.

The chains behind the UniProt entries cited, without tags or fusion partners.
UniProt P11142: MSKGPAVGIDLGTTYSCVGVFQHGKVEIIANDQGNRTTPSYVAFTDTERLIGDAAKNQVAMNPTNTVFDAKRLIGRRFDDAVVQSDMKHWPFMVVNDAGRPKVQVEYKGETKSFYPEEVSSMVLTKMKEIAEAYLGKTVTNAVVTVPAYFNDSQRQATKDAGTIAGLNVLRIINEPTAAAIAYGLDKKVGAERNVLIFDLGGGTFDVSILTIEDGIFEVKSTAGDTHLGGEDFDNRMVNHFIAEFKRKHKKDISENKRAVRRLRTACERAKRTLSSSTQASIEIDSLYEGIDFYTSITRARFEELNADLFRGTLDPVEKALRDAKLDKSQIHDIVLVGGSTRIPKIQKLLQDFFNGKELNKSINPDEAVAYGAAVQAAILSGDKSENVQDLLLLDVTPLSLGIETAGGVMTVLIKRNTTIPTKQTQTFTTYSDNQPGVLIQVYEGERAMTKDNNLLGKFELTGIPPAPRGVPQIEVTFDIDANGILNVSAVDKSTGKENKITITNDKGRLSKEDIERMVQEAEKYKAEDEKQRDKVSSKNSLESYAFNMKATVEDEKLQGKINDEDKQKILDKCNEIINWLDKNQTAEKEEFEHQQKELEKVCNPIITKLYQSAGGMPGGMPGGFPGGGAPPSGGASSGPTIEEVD

What was measured:
[1] = target: T1, Hsf1 peptide G204‐N214‐C_SSS (human); assay: fluorescence polarisation; fluorescein-labelled peptide at 1 μM titrated with Hsc70 (0–60 μM), 2 h at 25°C, HKM150 buffer (25 mM HEPES/KOH pH 7.6, 150 mM KCl, 5 mM MgCl2); Hsc70 concentrated in the presence of 1 mM ATP; quadratic fit; both purified
T1 sequence (peptide, fluorescein-5-maleimide on the C-terminal cysteine): GVKRKSPSMSNC

[2] = target: T2, Hsf1 peptide N200‐K208‐C_SSS (human); assay: as above
T2 sequence (peptide, fluorescein-5-maleimide on the C-terminal cysteine): NRSSGSKRKC

For “Human Hsc70 (HSPA8) (from UniProt P11142 1-646)”, which binding [1] is on record?
Its binding is “no binding (tested: 0–60 μM Hsc70)”.

And the binding [2]?
Its binding is “no binding (tested: 0–60 μM Hsc70)”.
